We go through 2 substances from PMC6172411, “Development of a Quantitative Assay for the Characterization of Human Collectin-11 (CL-11, CL-K1)” (Frontiers in Immunology, 2018).

By UniProt entry, the sequences of proteins in these tests, tags left out. Where a name states a change or a piece, a line headed by the entry shows the natural chain unless it says otherwise. Residues count along the entry.
UniProt P02769, residues 25-607: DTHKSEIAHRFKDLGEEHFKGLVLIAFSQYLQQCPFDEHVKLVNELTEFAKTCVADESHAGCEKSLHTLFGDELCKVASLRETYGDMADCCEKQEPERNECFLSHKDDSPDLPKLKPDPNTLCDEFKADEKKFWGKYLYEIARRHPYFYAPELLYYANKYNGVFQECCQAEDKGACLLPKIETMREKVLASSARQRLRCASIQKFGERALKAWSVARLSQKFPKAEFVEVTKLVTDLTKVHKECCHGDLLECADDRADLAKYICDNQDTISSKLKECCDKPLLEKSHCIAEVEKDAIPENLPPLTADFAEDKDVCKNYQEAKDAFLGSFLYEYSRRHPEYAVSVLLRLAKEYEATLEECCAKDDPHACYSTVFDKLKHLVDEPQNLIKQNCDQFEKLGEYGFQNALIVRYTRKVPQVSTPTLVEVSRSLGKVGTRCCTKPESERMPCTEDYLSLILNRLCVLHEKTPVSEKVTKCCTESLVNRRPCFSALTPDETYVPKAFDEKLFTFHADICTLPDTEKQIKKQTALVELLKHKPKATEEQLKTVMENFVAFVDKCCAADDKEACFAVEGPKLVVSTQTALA
UniProt Q9BWP8, residues 26-271: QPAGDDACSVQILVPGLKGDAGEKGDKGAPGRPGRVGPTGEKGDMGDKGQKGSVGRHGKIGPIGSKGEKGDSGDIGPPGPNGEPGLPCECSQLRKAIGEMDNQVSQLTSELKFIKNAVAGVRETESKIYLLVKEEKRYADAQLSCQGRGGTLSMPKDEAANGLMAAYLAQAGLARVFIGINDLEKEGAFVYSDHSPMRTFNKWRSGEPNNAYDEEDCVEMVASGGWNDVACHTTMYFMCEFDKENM

Results are given in words; binding and its absence hold for the method and conditions named. Some results given as binding are weak or reduced against the parent protein; the word gives no strength.

For test [1], the target named is T1, native collectin-10 (CL-10) from human plasma (human (endogenous in plasma)) (UniProt Q9Y6Z7).
T1 sequence: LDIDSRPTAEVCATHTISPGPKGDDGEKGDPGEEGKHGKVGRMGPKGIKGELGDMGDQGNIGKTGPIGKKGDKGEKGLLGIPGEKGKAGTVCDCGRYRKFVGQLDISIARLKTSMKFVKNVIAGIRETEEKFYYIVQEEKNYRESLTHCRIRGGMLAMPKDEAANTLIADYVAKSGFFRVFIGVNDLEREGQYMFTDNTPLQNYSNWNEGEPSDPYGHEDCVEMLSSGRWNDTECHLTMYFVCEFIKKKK
The test is described as follows: SEC; Superdex 200 HR 10/30, 0.5 ml/min, RT, PBS 2 mM EDTA; pooled blood sample; CL-11 and CL-10/11 in the fractions by sandwich ELISA, confirmed by western blot after TCA precipitation. Background: SEC sorts molecules by how far they enter the pores of the column.

Test [2] has as its target T1, native collectin-10 (CL-10) from human plasma (human (endogenous in plasma)). Put plainly: ELISA; sandwich ELISA on EDTA plasma 1:40 in sample buffer (TBS-Tw-EDTA, 0.1% bovine serum): mAb anti-CL-10 (HM2356) coated as capture, biotinylated anti-CL-11 Hyb-15 as detection; healthy donors and SIRS patients.
The target of test [3] is BSA (bovine (from the name BSA)) (UniProt P02769). Put plainly: ELISA; BSA coated in two-fold dilutions from 10 μg/ml in PBS; rCL-11 1 μg/ml in TBS-Tw-Ca, TBS-Tw-EDTA or TBS-Tw-Mg-EGTA, 2 h RT; detection with Hyb-15 and streptavidin-HRP.

For the substance “native collectin-11 (CL-11) from human serum and plasma (from UniProt Q9BWP8 26-271)”, the binding entry in test [1] and in test [2] was “binds” each time.

Consider “recombinant CL-11 (rCL-11), in-house, produced in Flp-In CHO cells (from UniProt Q9BWP8-1 26-271)”, for which the binding result in test [3] is listed as “no binding (tested: rCL-11 1 μg/ml; BSA coated from 10 μg/ml)”.
